The values below come from PubChem BioAssay AID2685 (National Center for Advancing Translational Sciences (NCATS), 2010).

Structures are written as SMILES. The list shows a part of the results. These are further read-outs of the screen, such as a control signal, another cell line or another target. No call is given for them. Most of these compounds were active or inconclusive in the main read-out, so they are no random draw. Words in brackets tell the shape of the fitted curve; partial curves, single points and poor fits give uncertain potencies.

The assay can be described thus: qHTS Assay for Lipid Storage Modulators in Drosophila S3 Cells.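 On cell number change: cells counted by Cell Tracker Red CMTPX staining in the red channel.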 The following applies: BODIPY lipid droplet fluorescence, 18-24 h; for cell number change: measured here: cell count max response, cells fed with added oleic acid. The procedure, abridged:
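Drosophila S3 cells loaded with oleic acid (400 uM, as added) and compounds at several concentrations; lipid droplets imaged by 488-nm laser-scanning cytometry, 500–530 nm intensity and object ratio to cell channel. Percent activity normalized to 20 uM Triacsin C.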
(In general: qHTS replaces the single test concentration by a dilution series.)

The mark [1] stands for this setting: measured here: lipid fluorescence (Fed channel) AC50, cells fed with added oleic acid.
Setting [2] is: measured here: cell number channel AC50, cells fed with added oleic acid.

Regarding `CCCCC[n+]1ccn(C2=C([O-])c3ccccc3C(=O)/C2=N\S(=O)(=O)c2ccc(Cl)cc2)c1`, the AC50 under setting [1] was 6.51 µM [falling, single point].

Regarding `COc1ccc(CCn2c(-c3ccc(C(C)(C)C)cc3)n[nH]c2=S)cc1OC`, the cell number change is -0.577%.

For the molecule `CCCNC(=O)NC(=O)CSc1nc2ccccc2c(=O)n1Cc1ccncc1`, under setting [1], the AC50 is 6.51 µM [rising, single point].

Take `CS(=O)(=O)N1CCC(C(=O)NCC2CCCO2)CC1` (configuration not stated): the AC50 under setting [1] was 7.31 µM [falling, single point].

Take `Cc1ccc(N(C(C)C(=O)Nc2ccc(S(=O)(=O)N3CCOCC3)cc2)S(C)(=O)=O)cc1` (configuration not stated): the cell number change was determined as 23.3%. Further, the AC50 under setting [1] was 0.651 µM [falling, single point].

Consider `CS(=O)(=O)ON=C1CCN(S(=O)(=O)c2ccccc2)CC1`, for which the cell number change was -58.1%. Under setting [2], the AC50 was 18.4 µM [falling, single point]. Moreover, the AC50 under setting [1] was 16.4 µM [falling, partial curve].

`CCOc1ccc(-c2ccc(SCC(=O)Nc3nnc(CC)s3)nn2)cc1`: the cell number change is -17.2%. Moreover, the AC50 under setting [2] is 0.82 µM [falling, single point]. Further, the AC50 under setting [1] was 0.82 µM [falling, single point].

On to `CCc1cc2c3c([nH]c2cc1S(=O)(=O)NCCCOC)CC(C)(C)CC3=O`, for which the cell number change is -26.8%. Besides, the AC50 under setting [1] is 23.1 µM [falling, single point].

For the molecule `Cc1ccc(-c2ccc(=O)n(CC(=O)NCc3ccco3)n2)cc1`, the cell number change is -3.16%.

Consider `COc1ccc(N2CCN(C(=O)CSc3nc4nc(C)cc(C)n4n3)CC2)cc1`, for which the cell number change is 25.9%. The AC50 under setting [1] was 8.2 µM [rising, partial curve, poor fit].

With `Cc1ccc(CNC(=O)COC(=O)c2c(C)noc2C)cc1`, the cell number change was -84.4%. For the same molecule, under setting [2], the AC50 was 14.6 µM [falling, partial curve, poor fit]. In addition, under setting [1], the AC50 was 2.31 µM [falling, partial curve].

Consider `COc1ccc(C(=O)Nc2ccc3ccccc3c2)c(OC)c1`, for which the cell number change was -31.8%. In addition, the AC50 under setting [2] is 2.06 µM [falling, full curve]. The AC50 under setting [1] is 29.1 µM [falling, single point].

`CN(Cc1ccccc1)c1nc2c(c(=O)[nH]c(=O)n2C)n1Cc1ccccc1Cl`: the AC50 under setting [2] is 6.51 µM [rising, single point] and the AC50 under setting [1] was 6.51 µM [rising, single point].

For the molecule `CC(C)N(NC(=O)c1cccc2ccccc12)C(C)C`, under setting [1], the AC50 is 6.51 µM [falling, single point].

Turning to `O=C(c1ccc(Cn2c(=S)[nH]c3ccccc3c2=O)cc1)N1CCN(c2ccccn2)CC1`, the cell number change is 18.3%. The AC50 under setting [1] is 6.51 µM [rising, single point].

Turning to `CCOc1ccc(NC(=O)CN(C)S(=O)(=O)c2cccs2)cc1`, the cell number change was 43.6%. In addition, the AC50 under setting [2] was 7.31 µM [rising, partial curve]. Besides, the AC50 under setting [1] is 6.51 µM [rising, single point].

As for `CCc1cc2ccccc2nc1SCC(=O)N1CCN(C(=O)c2ccco2)CC1`, the cell number change was determined as 10.5%. Moreover, under setting [1], the AC50 is 5.17 µM [rising, single point].

On to `CN(C(=O)COC(=O)/C=C/c1ccc(C(F)(F)F)cc1)C1CCS(=O)(=O)C1` (configuration not stated), for which the cell number change was -1.56%.

For `Oc1ccc(-c2c(-c3ccsc3)sc3ccccc23)cc1`, the cell number change is -32.7%. The AC50 under setting [2] is 16.4 µM [falling, single point].

Consider `O=C(COc1ccccc1)N1N=C(c2cccnc2)CC1(O)C(F)(F)F` (configuration not stated), for which the cell number change was found to be 37.8%. In addition, under setting [2], the AC50 is 1.84 µM [rising, partial curve, poor fit]. Under setting [1], the AC50 is 0.461 µM [rising, full curve].

On to `CCn1c(C(=O)O)c(S(=O)(=O)c2ccc(Cl)cc2)c2ccccc21`, for which the cell number change stood at 32.4%. Under setting [2], the AC50 was 4.11 µM [rising, full curve, poor fit].

As to `CC(C)(C)c1ccc(-n2ncc3c2CCCC3NC(=O)c2cnccn2)cc1` (configuration not stated), the cell number change is -30.6%. Besides, under setting [2], the AC50 was 0.231 µM [falling, full curve, poor fit]. In addition, the AC50 under setting [1] is 0.92 µM [falling, full curve].

`CCN(CC)c1ncnc2sc3c(c12)CCC3`: the cell number change stood at 10.3%. For the same molecule, the AC50 under setting [1] was 0.00517 µM [falling, full curve, poor fit].

As for `O=C(CCNS(=O)(=O)c1ccc(Cl)cc1)N1CCN(c2ccccn2)CC1`, the cell number change was found to be 9.24%. The AC50 under setting [1] is 0.206 µM [falling, single point].

`Cc1ccc(OCC(=O)NC(=S)Nc2ccc(Br)cn2)cc1C`: the cell number change was 10.4%. Under setting [2], the half-maximal activity concentration (AC50) is 0.0206 µM [rising, partial curve, poor fit]. Moreover, the AC50 under setting [1] was 0.164 µM [rising, partial curve].

`COc1ccc(C2(c3ccc(OC)cc3)NC(=O)N(CC(=O)NCC(F)(F)F)C2=O)cc1`: the cell number change was found to be 17.1%. Under setting [2], the AC50 was 3.66 µM [rising, single point].

As to `O=C(CN1CCOCC1)Nc1nc2ccc(F)cc2s1`, the cell number change amounted to 15.2%. For the same molecule, the AC50 under setting [1] was 6.51 µM [falling, partial curve, poor fit].

`O=C(CN1CCN(c2cccc(Cl)c2)CC1)NC1CCCc2ccccc21` (configuration not stated): the cell number change came to 55.6%. Besides, the AC50 under setting [2] was 10.3 µM [rising, partial curve].

For the molecule `O=C(COc1ccc2c(-c3ccccc3)cc(=O)oc2c1)N[C@H](Cc1c[nH]c2ccccc12)C(=O)O`, the cell number change is -13.6%.

On to `Cc1ccc(S(=O)(=O)CC(=O)c2ccccc2)cc1`, for which the cell number change is -32.1%. Besides, the AC50 under setting [2] is 29.1 µM [falling, single point]. Under setting [1], the AC50 is 0.00461 µM [falling, full curve, poor fit].

For the molecule `N/C(Cc1ccc(Cl)cc1Cl)=N\OC(=O)Cc1cccs1`, the cell number change was 41.1%. Besides, the concentration at half-maximal activity (AC50) under setting [2] was 20.6 µM [rising, single point]. Further, under setting [1], the AC50 is 16.4 µM [rising, single point].

In the case of `CCS(=O)(=O)N1CCC(C(=O)NCCCN2CCCCCC2)CC1`, the cell number change is -19.3%. Moreover, the AC50 under setting [1] was 20.6 µM [falling, partial curve].

On to `CCOc1ccccc1NC(=O)NCc1ccc(F)cc1`, for which the cell number change amounted to 6.21%.

With `Cc1ccc(C)c(N(C(=O)Cn2nnc3ccccc32)C(C(=O)NCc2ccco2)c2ccncc2)c1` (configuration not stated), the cell number change is 22%. The AC50 under setting [1] is 2.06 µM [rising, partial curve].

For `CC(=O)Oc1cccc(N2C(=O)CC(Nc3ccc(N4CCOCC4)cc3)C2=O)c1` (configuration not stated), the cell number change was -7.01%.

`C#CCOCCOCCOCCNc1nc(N2CCN(C(=O)C(Cc3ccc(O)cc3)n3cc(C(N)C(C)CC)nn3)CC2)nc(N2CCN(C(=O)C(Cc3ccc(O)cc3)n3cc(C(N)C(C)CC)nn3)CC2)n1` (configuration not stated): the cell number change is -11.7%. In addition, the AC50 under setting [1] is 3.66 µM [falling, full curve, poor fit].

Take `Cc1c(F)cccc1NC(=O)CCC(=O)O`: the cell number change was -11.4%. Further, the AC50 under setting [1] is 29.1 µM [falling, single point].

Regarding `N#Cc1cccc(S(=O)(=O)N2CCN(c3ccnc4cc(Cl)ccc34)CC2)c1`, the AC50 under setting [2] is 3.66 µM [rising, partial curve, poor fit] and the AC50 under setting [1] is 6.51 µM [rising, single point].

Turning to `Cc1ccccc1Cn1c(C(=O)OC(C)C)cc2c1ccn2C`, the cell number change was -28.5%. Also, the AC50 under setting [1] is 3.66 µM [falling, full curve].

Consider `C#CCNC(=O)c1cc2sccc2n1C`, for which the cell number change was 0.959%. Besides, under setting [1], the AC50 was 0.00461 µM [falling, full curve, poor fit].

As for `CC(=O)Nc1ccc(S(=O)(=O)Nc2cccc3[nH]ncc23)cc1`, the cell number change is -53.4%. Moreover, under setting [2], the AC50 is 14.6 µM [falling, partial curve]. In addition, under setting [1], the AC50 is 29.1 µM [falling, single point].

As to `CCN(CC)S(=O)(=O)c1cccc(-c2nnc(SC(C)C(N)=O)n2CCc2ccccc2)c1` (configuration not stated), the AC50 under setting [2] was 3.66 µM [rising, single point].

On to `CN(C(=O)COC(=O)COc1ccccc1F)C1CCS(=O)(=O)C1` (configuration not stated), for which the cell number change was found to be 27.8%. In addition, the AC50 under setting [1] is 29.1 µM [rising, single point].

For the molecule `COc1ccc(O)c(CN2CCN(C/C=C/c3ccccc3)CC2)c1`, the cell number change was determined as 13.7%. Under setting [1], the AC50 was 0.13 µM [falling, partial curve, poor fit].

As for `COCCN1C(=O)N(c2ccccc2)C(=O)C1CC(=O)Nc1cc(OC)cc(OC)c1` (configuration not stated), the cell number change was -3.81%. The AC50 under setting [1] was 29.1 µM [rising, single point].

Regarding `CN(C)S(=O)(=O)c1ccc(C(=O)N2CCN(S(=O)(=O)c3cccs3)CC2)cc1`, the cell number change worked out at 75.7%. Further, the AC50 under setting [1] was 0.146 µM [falling, full curve, poor fit].

Turning to `Cc1cc(C)cc(N(CC(=O)NCc2ccccc2Cl)S(=O)(=O)c2c(C)[nH]c(=O)[nH]c2=O)c1`, the cell number change was -56.8%. Under setting [2], the AC50 was 10.3 µM [falling, partial curve]. In addition, the AC50 under setting [1] was 7.31 µM [falling, partial curve, poor fit].

Turning to `COc1cccc(COc2ccc(N(C)S(=O)(=O)c3ccccc3)cc2)c1`, the cell number change was -8.57%. Moreover, under setting [1], the AC50 is 6.51 µM [rising, single point].

For the molecule `O=C(Nc1ccc(Cl)cc1)OCc1cn(-c2ccc(Cl)cc2)nn1`, the cell number change was -16.1%. The AC50 under setting [1] was 1.64 µM [falling, partial curve].

On to `CC(C)c1cc(C(N)=O)c(NC(=O)c2cccc(COc3ccc(Cl)cc3)c2)s1`, for which the cell number change was -22.1%. The AC50 under setting [2] is 2.59 µM [rising, single point].

In the case of `CCOC(=O)C1C(=O)C=C(N2CCOCC2)CC1c1cccc(OC)c1` (configuration not stated), the cell number change is -17.5%. Further, the AC50 under setting [1] was 0.231 µM [falling, full curve, poor fit].

For the molecule `O=C(Oc1ccc(-n2cnnn2)cc1)c1ccccc1`, the cell number change is -25%. The AC50 under setting [1] was 29.1 µM [falling, partial curve].

On to `NC(=O)C1CCN(C(=O)c2ccc3ccccc3c2)CC1`, for which the cell number change was -20.8%.

Take `CCOc1ccc(S(=O)(=O)c2c(C(=O)c3ccccc3)cnc3cc4c(cc23)OCCO4)cc1`: the cell number change was -17%. The AC50 under setting [1] is 0.651 µM [rising, single point].

Take `CCCCCn1c(=S)[nH]c2ncccc2c1=O`: the cell number change came to 21.3%. Besides, under setting [1], the concentration at half-maximal activity (AC50) was 20.6 µM [falling, single point].

As to `O=S(=O)(NCC1COc2ccccc2O1)c1ccc2ccccc2c1` (configuration not stated), the cell number change is -16.7%. Further, the AC50 under setting [2] was 0.366 µM [falling, full curve, poor fit].

In general, AC50 refers to the midpoint of the concentration-response curve, whichever way the signal moves. Read a low AC50 as activity at low concentration.
